Paper PMC5660092
These are yes or no findings as the source states them, for the method shown. In cells and extracts the contact can be indirect. A result given as binding can be weak or reduced; the word gives no strength. Tags and fused reporters may be left off the sequences shown.

Target: His-CaMKII-WT
Assay: co-IP; HEK293T (Fig. 7a) or HEK293 (Fig. 7d) cells co-transfected with His-CaMKII and Id-1 constructs; 6 uM ionomycin or 10 uM KN-93 for 24 h in Fig. 7a; His-tagged proteins precipitated with anti-His, western blot

B1: Myc-Id-1 FL (full-length) (protein, UniProt P41134 1-155)
chain: MKVASGSTATAAAGPSCALKAGKTASGAGEVVRCLSEQSVAISRCAGGAGARLPALLDEQQVNVLLYDMNGCYSRLKELVPTLPQNRKVSKVEILQHVIDYIRDLQLELNSESEVGTPGGRGLPVRAPLSTLNGEISALTAEAACVPADDRILCR
binding: binds
